Measured values reported in patent publication US20030162221A1.
These are yes or no findings as the source states them, for the method shown. In cells and extracts the contact can be indirect. Some binding calls cover weakened binding; strength is not graded here. Tags and fused reporters may be left off the sequences shown.

B1: Cdc5 (protein, Saccharomyces cerevisiae, UniProt P32562 1-705, looked up)
chain: MSLGPLKAINDKQLNTRSKLVHTPIKGNTADLVGKENHFKQTKRLDPNNDHHHQPAQKKKREKLSALCKTPPSLIKTRGKDYHRGHFLGEGGFARCFQIKDDSGEIFAAKTVAKASIKSEKTRKKLLSEIQIHKSMSHPNIVQFIDCFEDDSNVYILLEICPNGSLMELLKRRKVLTEPEVRFFTTQICGAIKYMHSRRVIHRDLKLGNIFFDSNYNLKIGDFGLAAVLANESERKYTICGTPNYIAPEVLMGKHSGHSFEVDIWSLGVMLYALLIGKPPFQARDVNTIYERIKCRDFSFPRDKPISDEGKILIRDILSLDPIERPSLTEIMDYVWFRGTFPPSIPSTVMSEAPNFEDIPEEQSLVNFKDCMEKSLLLESMSSDKIQRQKRDYISSIKSSIDKLEEYHQNRPFLPHSLSPGGTKQKYKEVVDIEAQRRLNDLAREARIRRAQQAVLRKELIATSTNVIKSEISLRILASECHLTLNGIVEAEAQYKMGGLPKSRLPKIKHPMIVTKWVDYSNKHGFSYQLSTEDIGVLFNNGTTVLRLADAEEFWYISYDDREGWVASHYLLSEKPRELSRHLEVVDFFAKYMKANLSRVSTFGREEYHKDDVFLRRYTRYKPFVMFELSDGTFQFNFKDHHKMAISDGGKLVTYISPSHESTTYPLVEVLKYGEIPGYPESNFREKLTLIKEGLKQKSTIVTVD
B2: Kss1 (protein, Saccharomyces cerevisiae, UniProt P14681 1-368, looked up)
chain: MARTITFDIPSQYKLVDLIGEGAYGTVCSAIHKPSGIKVAIKKIQPFSKKLFVTRTIREIKLLRYFHEHENIISILDKVRPVSIDKLNAVYLVEELMETDLQKVINNQNSGFSTLSDDHVQYFTYQILRALKSIHSAQVIHRDIKPSNLLLNSNCDLKVCDFGLARCLASSSDSRETLVGFMTEYVATRWYRAPEIMLTFQEYTTAMDIWSCGCILAEMVSGKPLFPGRDYHHQLWLILEVLGTPSFEDFNQIKSKRAKEYIANLPMRPPLPWETVWSKTDLNPDMIDLLDKMLQFNPDKRISAAEALRHPYLAMYHDPSDEPEYPPLNLDDEFWKLDNKIMRPEEEEEVPIEMLKDMLYDELMKTME

Columns and labels:
Test in all cases: anti-FLAG co-IP, LC-MS/MS
[1] = target: T1, Smc1 (Saccharomyces cerevisiae) (UniProt P32908)
T1 sequence (looked up): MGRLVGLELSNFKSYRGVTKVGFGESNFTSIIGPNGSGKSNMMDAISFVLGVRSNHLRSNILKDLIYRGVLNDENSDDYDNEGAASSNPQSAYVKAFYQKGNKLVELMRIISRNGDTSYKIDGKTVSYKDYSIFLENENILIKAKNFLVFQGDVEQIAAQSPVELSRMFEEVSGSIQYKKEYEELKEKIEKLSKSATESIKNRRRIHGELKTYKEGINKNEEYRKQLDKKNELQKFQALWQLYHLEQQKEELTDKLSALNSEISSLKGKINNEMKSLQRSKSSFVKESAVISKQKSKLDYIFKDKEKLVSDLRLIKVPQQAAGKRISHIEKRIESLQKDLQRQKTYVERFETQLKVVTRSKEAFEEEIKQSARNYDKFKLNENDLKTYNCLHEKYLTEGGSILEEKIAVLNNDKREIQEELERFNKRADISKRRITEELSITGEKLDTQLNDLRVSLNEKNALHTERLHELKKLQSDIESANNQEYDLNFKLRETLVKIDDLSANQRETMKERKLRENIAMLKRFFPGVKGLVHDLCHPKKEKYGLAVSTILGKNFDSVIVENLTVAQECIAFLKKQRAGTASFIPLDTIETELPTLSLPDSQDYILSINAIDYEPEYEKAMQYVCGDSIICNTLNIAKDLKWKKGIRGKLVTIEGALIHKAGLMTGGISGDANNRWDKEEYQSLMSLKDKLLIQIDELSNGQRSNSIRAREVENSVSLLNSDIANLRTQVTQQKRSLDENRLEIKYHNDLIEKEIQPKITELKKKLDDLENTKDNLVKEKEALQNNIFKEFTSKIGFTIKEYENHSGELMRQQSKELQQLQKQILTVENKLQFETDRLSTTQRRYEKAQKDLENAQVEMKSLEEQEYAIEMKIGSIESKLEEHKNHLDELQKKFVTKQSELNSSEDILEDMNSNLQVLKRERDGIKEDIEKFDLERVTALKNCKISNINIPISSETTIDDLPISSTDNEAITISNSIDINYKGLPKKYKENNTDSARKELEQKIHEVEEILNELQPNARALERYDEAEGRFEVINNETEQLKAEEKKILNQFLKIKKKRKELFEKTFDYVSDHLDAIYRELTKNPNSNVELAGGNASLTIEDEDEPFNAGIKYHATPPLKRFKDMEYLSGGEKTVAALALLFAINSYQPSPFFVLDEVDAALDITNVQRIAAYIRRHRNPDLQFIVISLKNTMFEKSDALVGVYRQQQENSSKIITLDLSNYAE

[2] = target: T2, Bem3 (Saccharomyces cerevisiae) (UniProt P32873)
T2 sequence (looked up): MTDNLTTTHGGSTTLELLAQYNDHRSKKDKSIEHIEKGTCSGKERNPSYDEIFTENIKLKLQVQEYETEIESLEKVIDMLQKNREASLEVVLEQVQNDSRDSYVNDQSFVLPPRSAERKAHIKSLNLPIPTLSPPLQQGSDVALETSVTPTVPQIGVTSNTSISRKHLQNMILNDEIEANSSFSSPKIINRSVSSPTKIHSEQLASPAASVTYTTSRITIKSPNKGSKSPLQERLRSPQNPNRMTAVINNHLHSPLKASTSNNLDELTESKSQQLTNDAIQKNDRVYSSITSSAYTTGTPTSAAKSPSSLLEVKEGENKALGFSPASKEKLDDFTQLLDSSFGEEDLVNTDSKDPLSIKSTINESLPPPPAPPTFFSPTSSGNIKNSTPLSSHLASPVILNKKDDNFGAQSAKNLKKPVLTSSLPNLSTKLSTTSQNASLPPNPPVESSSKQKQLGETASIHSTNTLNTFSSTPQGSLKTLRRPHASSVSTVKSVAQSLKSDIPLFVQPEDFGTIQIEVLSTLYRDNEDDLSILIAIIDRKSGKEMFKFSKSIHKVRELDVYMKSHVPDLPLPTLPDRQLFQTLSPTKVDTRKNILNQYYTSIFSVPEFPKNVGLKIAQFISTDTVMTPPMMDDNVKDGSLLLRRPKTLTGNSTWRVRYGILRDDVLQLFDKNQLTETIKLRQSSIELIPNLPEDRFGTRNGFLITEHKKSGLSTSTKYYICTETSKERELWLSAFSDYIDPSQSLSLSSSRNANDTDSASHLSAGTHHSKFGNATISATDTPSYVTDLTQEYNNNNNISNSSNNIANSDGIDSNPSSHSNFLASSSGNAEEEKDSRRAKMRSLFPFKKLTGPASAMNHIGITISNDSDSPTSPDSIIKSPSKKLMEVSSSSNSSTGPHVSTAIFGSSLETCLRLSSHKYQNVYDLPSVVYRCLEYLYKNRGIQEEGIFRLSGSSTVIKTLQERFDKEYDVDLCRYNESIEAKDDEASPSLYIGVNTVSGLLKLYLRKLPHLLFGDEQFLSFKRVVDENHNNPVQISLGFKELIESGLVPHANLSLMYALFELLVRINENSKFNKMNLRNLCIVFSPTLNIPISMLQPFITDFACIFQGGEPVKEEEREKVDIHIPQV

[3] = target: T3, Ste12 (Saccharomyces cerevisiae) (UniProt P13574)
T3 sequence (looked up): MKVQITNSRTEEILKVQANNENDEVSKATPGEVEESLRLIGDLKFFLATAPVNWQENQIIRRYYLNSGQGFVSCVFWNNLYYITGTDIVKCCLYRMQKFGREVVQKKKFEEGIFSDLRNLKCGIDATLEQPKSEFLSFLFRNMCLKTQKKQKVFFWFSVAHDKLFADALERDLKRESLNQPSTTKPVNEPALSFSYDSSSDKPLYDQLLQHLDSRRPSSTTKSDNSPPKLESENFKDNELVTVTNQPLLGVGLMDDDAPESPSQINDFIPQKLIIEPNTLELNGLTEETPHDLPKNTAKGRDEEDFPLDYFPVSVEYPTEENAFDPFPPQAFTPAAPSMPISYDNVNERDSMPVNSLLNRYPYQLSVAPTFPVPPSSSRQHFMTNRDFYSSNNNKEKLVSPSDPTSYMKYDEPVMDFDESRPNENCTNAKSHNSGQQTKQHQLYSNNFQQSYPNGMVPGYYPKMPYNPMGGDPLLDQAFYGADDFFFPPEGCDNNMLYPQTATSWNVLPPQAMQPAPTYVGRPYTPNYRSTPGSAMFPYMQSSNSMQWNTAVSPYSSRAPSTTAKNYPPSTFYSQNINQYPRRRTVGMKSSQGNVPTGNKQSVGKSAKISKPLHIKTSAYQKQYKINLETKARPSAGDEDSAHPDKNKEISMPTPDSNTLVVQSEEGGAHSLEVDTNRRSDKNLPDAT

Binder	binding [1]	binding [2]	binding [3]
B1	binds	–	–
B2	–	binds	binds
